The text below walks through data of patent publication US9404916B2, “Use of a protein kinase inhibitor to detect immune cells, such as T cells” (University College Cardiff Consultants Limited, priority 2008, dated 2016).

Each structure is given as a SMILES string.

The test system of the data set is ILA1 TCR. As to conditions: simultaneous non-linear least-squares fit.

With `Cc1nc(Nc2ncc(C(=O)Nc3c(C)cccc3Cl)s2)cc(N2CCN(CCO)CC2)n1` [dasatinib, N-(2-chloro-6-methyl-phenyl)-2-(6-(4-(2-hydroxyethyl)-piperazin-1-yl)-2-methylpyrimidin-4-ylamino)thiazole-5-carboxamide], the “duplet recruitment enhancement factor δD” value came to 6.53±2.93 and the “triplet recruitment enhancement factor δT” value is on record as 13.7±7.38.
